PubChem BioAssay AID504786, Drosophila RNAi Screening Center – 2011
The deposit covers about 21,000 reagents; below is a random part of those that have a named target and a result. 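Primary screen; positive scores mean lost reporter signal, so the sign may be inverted from the usual convention.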 A plus sign joins genes that one reagent is predicted to hit.

Purpose: 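Positive regulators of HIF-driven reporter output in Drosophila cells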 (primary screen)
Cells: Drosophila S2 cells with a stable HIF luciferase reporter
Knock-down reagent: long dsRNA against Drosophila genes, about 0.2 µg dsRNA per well of a 384-well plate
Time to read-out: three days of knock-down, then 20 h of DFO before reading
Conditions: desferrioxamine (DFO) at 100 µM, an iron chelator that mimics hypoxia, for 20 h
Detection: 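Firefly luciferase driven by the mouse ldh-a hypoxia-response element, measured after 20 h of 100 µM DFO; z-scores per plate, higher means more signal lost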
Reading the numbers: z-score: higher = stronger loss of HIF reporter signal

no.	gene	dsRNA	z-score, replicate 1	z-score, replicate 2	z-score, replicate 3	z-score, replicate 4
1	CG12516	DRSC14524	-0.5	-0.3		
2	CG11786	DRSC14389	-0.4	-0.6		
3	Vha100-1 (Vacuolar H[+] ATPase 100kD subunit 1)	DRSC14148	-0.4	-1		
4	Cyp4ad1 (Cytochrome P450 4ad1)	DRSC07369	-0.4	-0.4		
5	CR15821 (pseudo)	DRSC08481	-0.3	-0.1		
6	CG9483	DRSC03226	-0.4	-0.2		
7	cactin	DRSC20576	1.9	1.8		
8	verm (vermiform)	DRSC11038	-0.3	-0.4		
9	CG17712	DRSC00266	-0.2	-0.2		
10	CR14499 (retired record)	DRSC06470	-0.2	-0.3		
11	Tsp26A (Tetraspanin 26A)	DRSC03135	-0.3	-0.3		
12	Ugt37A1 (UDP-glycosyltransferase family 37 member A1)	DRSC02114	-0.3	-0.3		
13	Pxn (Peroxidasin)	DRSC08685	-0.1	0.1		
14	RasGAP1 (Ras GTPase activating protein 1)	DRSC11172	-0.5	-1.3		
15	SP1029	DRSC16848	-0.4	-0.1		
16	nes (nessy)	DRSC11375	-0.2	0		
17	CG10853	DRSC08164	-0.2	0.8		
18	Cyp313b1 (Cytochrome P450 313b1)	DRSC16629	-0.3	-0.2		
19	Atx-1 (Ataxin 1)	DRSC18365	-0.3	-0.7		
20	shn (schnurri)	DRSC05266	-0.1	-0.2		
21	shn (schnurri)	DRSC07681	0.1	0.5		
22	HisT (Histamine transporter)	DRSC05051	0	0		
23	HisT (Histamine transporter)	DRSC05052	0.6	0.4		
24	HisT (Histamine transporter)	DRSC06405	0.6	0.3		
25	Ipo9 (Importin 9)	DRSC16813	-0.3	-0.8		
26	Nnk (Nicknack)	DRSC15274	-0.4	0.3		
27	Men-b (Malic enzyme b)	DRSC16736	-0.5	-0.7		
28	CG13062	DRSC09945	0.1	-0.1		
29	Gr89a (Gustatory receptor 89a)	DRSC15023	0	0.5		
30	CG33543	DRSC00384	-0.1	-0.3		
31	CG33543	DRSC00385	0.1	-0.1		
32	ths (thisbe)	DRSC06153	1.7	4.6		
33	JhI-21 (Juvenile hormone Inducible-21)	DRSC02161	-0.3	-0.5		
34	ppk18 (pickpocket 18)	DRSC02216	-0.3	-0.2		
35	lig (lingerer)	DRSC07246	1.6	0.7		
36	lig (lingerer)	DRSC07247	0.1	-0.1		
37	ksr (kinase suppressor of ras)	DRSC12379	0.1	0.6		
38	Met75Ca + Met75Cb	DRSC09549	-0.4	-0.3		
39	Met75Ca + Met75Cb	DRSC11221	-0.4	0		
40	Apoltp (Apolipoprotein lipid transfer particle)	DRSC02508	-0.2	-0.7		
41	IntS6 (Integrator 6)	DRSC18281	0.7	0.1		
42	CG12025	DRSC08230	-0.3	-0.1		
43	Trmt112 (tRNA methyltransferase subunit 11-2)	DRSC11685	-0.1	-0.3		
44	CG32829	DRSC00961	0.3	-0.1	1.3	-0.1
45	CG2336	DRSC12581	-0.3	-0.3		
46	CG9586	DRSC03270	-0.3	-0.3		
47	CG6005	DRSC15945	-0.1	0.1		
48	CG9154	DRSC03150	-0.3	-0.2		
49	e (ebony)	DRSC16936	-0.1	-0.2		
50	tyf (twenty-four)	DRSC18382	-0.2	-0.3		
51	CG6503	DRSC16056	-0.2	0.3		
52	Slmap (Sarcolemma associated protein)	DRSC03799	2	1.6		
53	Or9a (Odorant receptor 9a)	DRSC18692	-0.1	-0.5		
54	Taz (Tafazzin)	DRSC07704	-0.4	-0.2	-0.8	-0.3
55	CG8750	DRSC11037	0.2	0.5		
56	hoe2 (hoepel2)	DRSC00459	-0.4	-0.4		
57	Kpc1 (Kip1 ubiquitination-promoting complex subunit 1)	DRSC16107	-0.4	-0.4		
58	CG4653	DRSC19909	-0.2	-0.2	-0.1	-0.2
59	CG5039	DRSC15703	-0.3	-0.1		
60	Arglu1 (Arginine and glutamate rich 1)	DRSC02909	-0.1	0.5		
61	CG9107	DRSC03138	0.5	0.7		
62	CG14692	DRSC14915	-0.3	0		
63	TSG101 (Tumor susceptibility gene 101)	DRSC11098	-0.1	-0.4		
64	CG42539 (retired record)	DRSC13691	-0.3	-0.3		
65	CG9117	DRSC03141	-0.2	-0.1		
66	CG11475	DRSC04113	-0.3	-0.5		
67	Ssl (Suppressor of Stellate-like)	DRSC04657	-0.1	-0.4		
68	CG6583	DRSC02972	-0.3	-0.4		
69	Ets65A (Ets at 65A)	DRSC09968	-0.1	0.1		
70	Ets65A (Ets at 65A)	DRSC10738	0	0.5		
71	Ets65A (Ets at 65A)	DRSC11164	-0.1	0.1		
72	CG16789	DRSC15155	-0.2	-0.5		
73	alpha-Catr (alpha-catenin related)	DRSC04669	-0.3	-0.2		
74	OSCP1	DRSC06304	-0.4	-0.2		
75	CG17572	DRSC02629	-0.2	0.3		
76	Nufip	DRSC10397	-0.3	-0.2		
77	Ccz1 (Caffeine, calcium, zinc sensitivity 1)	DRSC08439	-0.1	0.1		
78	CG32170	DRSC09452	0.1	-0.1		
79	Alg13 (Alg13 UDP-N-acetylglucosaminyltransferase subunit)	DRSC14864	-0.3	-0.4		
80	eIF2A (eukaryotic translation initiation factor 2A)	DRSC11825	-0.3	-0.4		
81	GABA-B-R2 (metabotropic GABA-B receptor subtype 2)	DRSC14134	-0.3	-0.6		
82	Samuel	DRSC02156	0	-0.3		
83	Samuel	DRSC02401	-0.1	-0.2		
84	Samuel	DRSC02402	-0.3	-0.3		

13 entries already listed, sorted by “z-score, replicate 2”, highest first:
gene	dsRNA	z-score, replicate 1	z-score, replicate 2	z-score, replicate 3	z-score, replicate 4
lig (lingerer)	DRSC07246	1.6	0.7		
ksr (kinase suppressor of ras)	DRSC12379	0.1	0.6		
IntS6 (Integrator 6)	DRSC18281	0.7	0.1		
Met75Ca + Met75Cb	DRSC11221	-0.4	0		
lig (lingerer)	DRSC07247	0.1	-0.1		
CG12025	DRSC08230	-0.3	-0.1		
CG32829	DRSC00961	0.3	-0.1	1.3	-0.1
ppk18 (pickpocket 18)	DRSC02216	-0.3	-0.2		
Met75Ca + Met75Cb	DRSC09549	-0.4	-0.3		
Trmt112 (tRNA methyltransferase subunit 11-2)	DRSC11685	-0.1	-0.3		
CG2336	DRSC12581	-0.3	-0.3		
JhI-21 (Juvenile hormone Inducible-21)	DRSC02161	-0.3	-0.5		
Apoltp (Apolipoprotein lipid transfer particle)	DRSC02508	-0.2	-0.7		
